The other results are listed elsewhere or left out.
Key:
Assay in all cases: log2 fold change, soluble protein after heating vs DMSO (PISA); higher = thermal stabilisation; K562 cells, 10 uM, 30 min; active = over 0.2 and 3.5 SD of the protein, either way, in both replicates (recomputed)
saracatinib = compound: CN1CCN(CCOc2cc(OC3CCOCC3)c3c(Nc4c(Cl)ccc5c4OCO5)ncnc3c2)CC1 [saracatinib]
Method in brief: (§1)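 Thermal stability values are relative to control samples and come from duplicates. They are expressed as log2 fold changes. For measurement, K562 cells (2×10^6 cells/mL) received 10 μM compound for 30 min, and aliquots were heated for 3 min over 48°C-58°C, pooled, and extracted at 4°C in PBS with 0.5% NP-40. Soluble protein, the supernatant after 21,000xg for 90 min, was quantified by TMTpro 16plex LC-MS/MS with equalised channel sums.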

Amino acid sequences for entries named in this document (tags omitted). A change or cut given only in a name is not applied to a line headed by its entry.
UniProt Q14152, whole entry, looked up: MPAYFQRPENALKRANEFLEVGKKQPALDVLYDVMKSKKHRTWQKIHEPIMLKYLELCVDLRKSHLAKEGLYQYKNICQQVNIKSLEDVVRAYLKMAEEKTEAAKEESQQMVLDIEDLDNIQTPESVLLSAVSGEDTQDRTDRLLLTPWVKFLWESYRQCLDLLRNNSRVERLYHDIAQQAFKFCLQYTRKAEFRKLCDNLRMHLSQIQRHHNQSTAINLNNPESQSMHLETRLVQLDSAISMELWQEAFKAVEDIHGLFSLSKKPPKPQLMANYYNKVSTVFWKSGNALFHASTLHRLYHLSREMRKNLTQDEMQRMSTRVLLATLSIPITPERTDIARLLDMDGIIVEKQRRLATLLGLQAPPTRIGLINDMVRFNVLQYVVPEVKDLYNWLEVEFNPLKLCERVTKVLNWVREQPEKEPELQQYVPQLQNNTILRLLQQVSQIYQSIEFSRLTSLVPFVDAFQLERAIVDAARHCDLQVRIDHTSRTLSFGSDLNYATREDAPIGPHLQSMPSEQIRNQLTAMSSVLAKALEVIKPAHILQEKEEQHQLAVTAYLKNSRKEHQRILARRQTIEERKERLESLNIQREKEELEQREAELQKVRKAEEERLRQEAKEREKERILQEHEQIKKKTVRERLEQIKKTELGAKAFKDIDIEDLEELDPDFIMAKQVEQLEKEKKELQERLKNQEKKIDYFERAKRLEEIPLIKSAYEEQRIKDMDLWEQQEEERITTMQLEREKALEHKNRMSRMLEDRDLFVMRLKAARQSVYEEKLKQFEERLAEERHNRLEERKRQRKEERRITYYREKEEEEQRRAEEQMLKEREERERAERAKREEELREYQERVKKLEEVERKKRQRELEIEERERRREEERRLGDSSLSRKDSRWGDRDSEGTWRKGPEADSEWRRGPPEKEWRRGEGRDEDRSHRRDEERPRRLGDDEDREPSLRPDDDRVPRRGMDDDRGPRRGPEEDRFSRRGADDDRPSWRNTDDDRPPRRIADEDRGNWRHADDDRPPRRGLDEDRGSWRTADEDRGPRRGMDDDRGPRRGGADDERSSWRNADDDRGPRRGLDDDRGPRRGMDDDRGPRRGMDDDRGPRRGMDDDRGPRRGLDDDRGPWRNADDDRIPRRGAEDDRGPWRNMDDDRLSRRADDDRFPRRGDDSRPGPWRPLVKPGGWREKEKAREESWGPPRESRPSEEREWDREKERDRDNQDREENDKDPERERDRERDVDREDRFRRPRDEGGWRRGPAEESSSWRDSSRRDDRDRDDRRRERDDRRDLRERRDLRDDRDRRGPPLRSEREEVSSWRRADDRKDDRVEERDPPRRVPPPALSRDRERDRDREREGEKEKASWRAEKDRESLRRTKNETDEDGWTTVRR
UniProt P41214: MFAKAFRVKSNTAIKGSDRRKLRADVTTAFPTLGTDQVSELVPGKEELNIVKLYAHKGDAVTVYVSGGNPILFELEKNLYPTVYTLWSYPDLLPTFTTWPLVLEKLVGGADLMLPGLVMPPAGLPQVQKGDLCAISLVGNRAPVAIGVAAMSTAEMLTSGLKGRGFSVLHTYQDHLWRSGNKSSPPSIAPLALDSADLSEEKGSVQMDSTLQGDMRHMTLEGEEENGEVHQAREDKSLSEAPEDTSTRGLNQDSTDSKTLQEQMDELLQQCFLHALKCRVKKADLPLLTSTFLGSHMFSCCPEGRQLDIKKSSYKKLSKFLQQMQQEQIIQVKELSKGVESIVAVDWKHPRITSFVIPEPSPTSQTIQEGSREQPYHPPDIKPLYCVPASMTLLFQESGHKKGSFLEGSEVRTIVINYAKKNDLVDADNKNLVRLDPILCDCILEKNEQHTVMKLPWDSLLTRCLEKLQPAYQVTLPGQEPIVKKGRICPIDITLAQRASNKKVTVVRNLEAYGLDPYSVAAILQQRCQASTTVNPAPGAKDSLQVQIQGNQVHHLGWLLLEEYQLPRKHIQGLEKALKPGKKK
UniProt Q9P0I2: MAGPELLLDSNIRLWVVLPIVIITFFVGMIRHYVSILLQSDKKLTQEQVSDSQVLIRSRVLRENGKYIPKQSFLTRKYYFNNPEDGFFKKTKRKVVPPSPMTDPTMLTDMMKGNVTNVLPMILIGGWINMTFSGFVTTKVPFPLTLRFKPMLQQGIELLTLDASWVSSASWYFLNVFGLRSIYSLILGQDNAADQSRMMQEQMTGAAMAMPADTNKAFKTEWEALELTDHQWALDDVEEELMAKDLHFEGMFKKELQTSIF
UniProt Q05639, whole entry, looked up: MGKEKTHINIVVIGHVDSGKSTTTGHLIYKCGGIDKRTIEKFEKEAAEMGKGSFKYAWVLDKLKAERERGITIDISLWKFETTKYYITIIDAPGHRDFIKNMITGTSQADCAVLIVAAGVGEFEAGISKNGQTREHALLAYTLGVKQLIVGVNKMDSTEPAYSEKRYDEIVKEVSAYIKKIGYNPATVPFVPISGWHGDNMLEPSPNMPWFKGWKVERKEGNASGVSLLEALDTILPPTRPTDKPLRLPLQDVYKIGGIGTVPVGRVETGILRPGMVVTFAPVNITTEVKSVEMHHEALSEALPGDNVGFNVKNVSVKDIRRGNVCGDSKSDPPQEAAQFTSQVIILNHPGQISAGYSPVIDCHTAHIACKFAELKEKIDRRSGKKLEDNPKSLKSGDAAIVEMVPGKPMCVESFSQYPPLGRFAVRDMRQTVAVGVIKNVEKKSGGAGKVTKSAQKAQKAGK
UniProt Q9UI10, whole entry, looked up: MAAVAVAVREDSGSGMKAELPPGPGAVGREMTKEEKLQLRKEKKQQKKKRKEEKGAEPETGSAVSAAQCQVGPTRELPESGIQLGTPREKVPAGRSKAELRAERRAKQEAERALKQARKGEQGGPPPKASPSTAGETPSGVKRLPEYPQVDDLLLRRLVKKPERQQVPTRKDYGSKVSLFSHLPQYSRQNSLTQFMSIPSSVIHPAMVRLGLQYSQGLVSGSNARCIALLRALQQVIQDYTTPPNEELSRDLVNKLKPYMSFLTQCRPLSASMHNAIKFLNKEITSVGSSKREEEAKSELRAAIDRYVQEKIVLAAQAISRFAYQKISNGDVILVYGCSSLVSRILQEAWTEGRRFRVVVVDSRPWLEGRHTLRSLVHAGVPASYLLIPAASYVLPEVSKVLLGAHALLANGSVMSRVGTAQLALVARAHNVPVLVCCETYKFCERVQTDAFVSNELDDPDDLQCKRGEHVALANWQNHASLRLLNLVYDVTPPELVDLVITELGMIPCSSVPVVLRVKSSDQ
UniProt O60841: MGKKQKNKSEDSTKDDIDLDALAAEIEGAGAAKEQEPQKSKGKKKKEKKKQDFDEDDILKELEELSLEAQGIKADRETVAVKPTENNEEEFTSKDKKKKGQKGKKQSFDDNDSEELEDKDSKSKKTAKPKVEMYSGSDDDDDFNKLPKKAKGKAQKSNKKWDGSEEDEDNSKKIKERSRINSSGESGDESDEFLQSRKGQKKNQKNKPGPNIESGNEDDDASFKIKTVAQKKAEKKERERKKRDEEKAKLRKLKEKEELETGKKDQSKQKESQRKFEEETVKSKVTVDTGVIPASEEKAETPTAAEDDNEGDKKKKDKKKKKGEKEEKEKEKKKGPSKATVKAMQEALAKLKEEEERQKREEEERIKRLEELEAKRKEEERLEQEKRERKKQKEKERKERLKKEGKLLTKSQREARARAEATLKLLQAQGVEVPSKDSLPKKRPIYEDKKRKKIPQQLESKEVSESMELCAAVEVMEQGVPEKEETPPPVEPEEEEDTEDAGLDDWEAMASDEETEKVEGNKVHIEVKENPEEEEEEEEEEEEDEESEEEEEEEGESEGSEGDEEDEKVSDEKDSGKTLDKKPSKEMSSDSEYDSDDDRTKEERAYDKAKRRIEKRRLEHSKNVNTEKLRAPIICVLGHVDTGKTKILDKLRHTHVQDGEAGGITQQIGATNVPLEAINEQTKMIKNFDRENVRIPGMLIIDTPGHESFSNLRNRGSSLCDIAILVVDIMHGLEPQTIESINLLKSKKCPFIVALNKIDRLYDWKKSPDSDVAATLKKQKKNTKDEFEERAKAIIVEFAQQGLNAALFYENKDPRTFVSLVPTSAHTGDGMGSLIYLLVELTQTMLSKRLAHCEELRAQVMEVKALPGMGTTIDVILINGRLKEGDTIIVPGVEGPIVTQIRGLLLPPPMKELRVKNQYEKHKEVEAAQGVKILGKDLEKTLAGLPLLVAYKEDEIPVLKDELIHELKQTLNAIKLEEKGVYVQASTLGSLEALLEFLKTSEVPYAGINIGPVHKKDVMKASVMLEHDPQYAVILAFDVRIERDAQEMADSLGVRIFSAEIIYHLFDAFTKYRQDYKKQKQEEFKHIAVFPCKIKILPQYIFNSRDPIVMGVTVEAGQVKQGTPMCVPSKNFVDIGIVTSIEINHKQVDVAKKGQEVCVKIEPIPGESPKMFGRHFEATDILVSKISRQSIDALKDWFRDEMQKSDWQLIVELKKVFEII
UniProt Q9Y262, whole entry, looked up: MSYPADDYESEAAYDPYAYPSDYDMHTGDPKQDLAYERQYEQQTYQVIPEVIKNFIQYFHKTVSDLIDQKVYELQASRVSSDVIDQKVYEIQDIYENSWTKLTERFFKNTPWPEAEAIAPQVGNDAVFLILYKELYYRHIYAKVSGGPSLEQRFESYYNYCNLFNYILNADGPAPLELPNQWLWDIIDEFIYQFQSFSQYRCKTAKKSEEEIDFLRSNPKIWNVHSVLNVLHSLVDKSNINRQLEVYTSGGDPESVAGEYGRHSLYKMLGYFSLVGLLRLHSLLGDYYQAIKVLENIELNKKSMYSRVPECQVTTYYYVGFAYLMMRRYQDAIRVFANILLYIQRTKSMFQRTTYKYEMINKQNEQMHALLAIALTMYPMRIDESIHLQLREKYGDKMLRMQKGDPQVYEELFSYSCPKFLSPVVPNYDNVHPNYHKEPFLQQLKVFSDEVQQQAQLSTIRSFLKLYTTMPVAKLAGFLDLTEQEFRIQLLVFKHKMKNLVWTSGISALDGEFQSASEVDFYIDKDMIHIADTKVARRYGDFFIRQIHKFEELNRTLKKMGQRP
UniProt P55199: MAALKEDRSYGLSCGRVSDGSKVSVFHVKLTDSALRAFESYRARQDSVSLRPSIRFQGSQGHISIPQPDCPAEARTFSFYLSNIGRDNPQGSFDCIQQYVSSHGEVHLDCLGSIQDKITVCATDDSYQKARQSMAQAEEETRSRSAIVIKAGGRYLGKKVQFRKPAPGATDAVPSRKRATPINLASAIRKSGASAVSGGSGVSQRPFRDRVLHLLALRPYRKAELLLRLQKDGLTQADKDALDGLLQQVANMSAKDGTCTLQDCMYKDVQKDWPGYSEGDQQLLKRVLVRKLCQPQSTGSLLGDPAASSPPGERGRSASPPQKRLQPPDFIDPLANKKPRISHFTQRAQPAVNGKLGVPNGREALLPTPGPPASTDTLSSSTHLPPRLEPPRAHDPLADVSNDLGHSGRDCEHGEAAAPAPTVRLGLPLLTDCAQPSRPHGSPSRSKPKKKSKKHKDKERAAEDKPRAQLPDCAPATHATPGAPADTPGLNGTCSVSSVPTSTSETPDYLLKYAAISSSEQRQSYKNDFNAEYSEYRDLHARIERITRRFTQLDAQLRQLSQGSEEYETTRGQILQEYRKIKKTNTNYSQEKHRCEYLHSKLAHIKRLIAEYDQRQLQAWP
UniProt Q13541: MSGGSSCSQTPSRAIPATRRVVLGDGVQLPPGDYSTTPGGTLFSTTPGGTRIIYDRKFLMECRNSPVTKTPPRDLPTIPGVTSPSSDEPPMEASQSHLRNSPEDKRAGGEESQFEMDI
UniProt P55884, whole entry, looked up: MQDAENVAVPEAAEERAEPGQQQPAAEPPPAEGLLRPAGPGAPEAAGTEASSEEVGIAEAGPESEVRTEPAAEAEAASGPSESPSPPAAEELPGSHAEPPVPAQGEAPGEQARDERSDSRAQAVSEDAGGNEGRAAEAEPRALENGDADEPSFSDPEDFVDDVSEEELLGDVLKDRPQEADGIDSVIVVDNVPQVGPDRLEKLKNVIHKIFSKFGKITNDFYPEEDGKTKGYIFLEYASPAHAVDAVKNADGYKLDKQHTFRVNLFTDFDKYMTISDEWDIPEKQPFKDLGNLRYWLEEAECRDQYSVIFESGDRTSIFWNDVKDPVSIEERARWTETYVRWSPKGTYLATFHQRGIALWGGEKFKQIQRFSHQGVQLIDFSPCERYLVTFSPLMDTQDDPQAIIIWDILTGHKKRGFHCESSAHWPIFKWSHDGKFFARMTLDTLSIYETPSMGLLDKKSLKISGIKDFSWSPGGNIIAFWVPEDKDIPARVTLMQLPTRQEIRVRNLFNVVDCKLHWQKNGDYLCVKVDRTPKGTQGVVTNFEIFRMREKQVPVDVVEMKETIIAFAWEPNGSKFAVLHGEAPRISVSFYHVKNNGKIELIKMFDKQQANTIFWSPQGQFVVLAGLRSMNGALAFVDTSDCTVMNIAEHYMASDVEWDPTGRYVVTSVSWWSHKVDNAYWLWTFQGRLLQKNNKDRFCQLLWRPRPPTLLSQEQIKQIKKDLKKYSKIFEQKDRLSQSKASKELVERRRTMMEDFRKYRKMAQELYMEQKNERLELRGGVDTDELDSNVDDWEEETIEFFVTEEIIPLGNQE

sotrastaurin = compound: CN1CCN(c2nc(C3=C(c4c[nH]c5ccccc45)C(=O)NC3=O)c3ccccc3n2)CC1 [sotrastaurin]
Method in brief: as §1

alvocidib = compound: CN1CC[C@H](c2c(O)cc(O)c3c(=O)cc(-c4ccccc4Cl)oc23)[C@H](O)C1 [alvocidib]
Method in brief: as §1

Tubastatin A = compound: CN1CCc2c(c3ccccc3n2Cc2ccc(C(=O)NO)cc2)C1 [Tubastatin A]
Method in brief: as §1

[1] = compound: CNC(=O)C1=CC=CC=C1NC2=NC(=NC=C2Cl)NC3=C(C=C(C=C3)N4CCOCC4)OC
Method in brief: as §1

defactinib = compound: CNC(=O)c1ccc(Nc2ncc(C(F)(F)F)c(NCc3nccnc3N(C)S(C)(=O)=O)n2)cc1 [defactinib]
Method in brief: as §1

rucaparib = compound: CNCc1ccc(-c2[nH]c3cc(F)cc4c3c2CCNC4=O)cc1 [rucaparib]
Method in brief: as §1

[2] = compound: CNc1nc(-c2ccc3c(N)n[nH]c3c2)cc(N2C[C@@H](C(=O)NC3CCCCC3)CC[C@H]2C)n1
Method in brief: as §1

encorafenib = compound: COC(=O)N[C@@H](C)CNc1nccc(-c2cn(C(C)C)nc2-c2cc(Cl)cc(NS(C)(=O)=O)c2F)n1 [encorafenib]
Method in brief: as §1

[3] = compound: COC(=O)[C@H](CCSC)NC(=O)C1=C(C=C(C=C1)NC[C@H](CS)N)C2=CC=CC=C2
Method in brief: as §1

Measured: log2 fold change

EMC8 (UniProt O43402)
inactive: saracatinib 0.008 | sotrastaurin -0.052 | alvocidib -0.022 | Tubastatin A -0.007 | [1] 0.03 | defactinib -0.041 | rucaparib 0.051 | [2] -0.071 | encorafenib -0.018 | [3] -0.001

EML2 isoform 3 (UniProt O95834)
inactive: saracatinib 0.02 | sotrastaurin 0.029 | alvocidib -0.078 | Tubastatin A 0.005 | [1] -0.035 | defactinib -0.033 | rucaparib -0.041 | [2] -0.027 | encorafenib -0.028 | [3] 0.004

EIF3A (UniProt Q14152)
inactive: saracatinib -0.128 | sotrastaurin -0.206 | alvocidib -0.032 | Tubastatin A 0.092 | [1] 0.002 | defactinib -0.041 | rucaparib 0.192 | [2] 0.044 | encorafenib 0.12 | [3] -0.106

ELOVL6 (UniProt Q9H5J4)
inactive: saracatinib 0.243 | sotrastaurin -0.011 | alvocidib -0.059 | Tubastatin A -0.047 | [1] -0.088 | defactinib -0.072 | rucaparib -0.014 | [2] 0.039 | encorafenib 0.105 | [3] 0.03

ENOPH1 (UniProt Q9UHY7)
inactive: saracatinib 0.001 | sotrastaurin -0.099 | alvocidib -0.163 | Tubastatin A 0.127 | [1] 0.077 | defactinib -0.093 | rucaparib 0.014 | [2] 0.059 | encorafenib 0 | [3] -0.063

ELOB (UniProt Q15370)
inactive: saracatinib -0.034 | sotrastaurin -0.039 | alvocidib -0.014 | Tubastatin A -0.022 | [1] 0.035 | defactinib -0.023 | rucaparib -0.066 | [2] -0.004 | encorafenib 0.026 | [3] -0.004

ELAC2 (UniProt Q9BQ52)
inactive: saracatinib 0.033 | sotrastaurin 0.055 | alvocidib -0.018 | Tubastatin A -0.049 | [1] -0.03 | defactinib -0.017 | rucaparib -0.024 | [2] -0.005 | encorafenib -0.017 | [3] -0.003

EIF2D (UniProt P41214)
inactive: saracatinib -0.245 | sotrastaurin -0.267 | alvocidib -0.002 | Tubastatin A 0.042 | [1] 0.027 | defactinib -0.012 | rucaparib 0.169 | [2] 0.044 | encorafenib 0.224 | [3] -0.112

EI24 (UniProt O14681)
inactive: saracatinib 0.064 | sotrastaurin 0.056 | alvocidib -0.016 | Tubastatin A -0.086 | [1] -0.1 | defactinib -0.072 | rucaparib 0.042 | [2] -0.063 | encorafenib 0.041 | [3] 0.055

EMC3 (UniProt Q9P0I2)
inactive: saracatinib -0.004 | sotrastaurin 0.016 | alvocidib -0.04 | Tubastatin A 0.002 | [1] 0.002 | defactinib -0.057 | rucaparib -0.023 | [2] -0.016 | encorafenib 0.008 | [3] -0.019

EML3 (UniProt Q32P44)
inactive: saracatinib 0.144 | sotrastaurin -0.037 | alvocidib 0.147 | Tubastatin A 0.051 | [1] -0.045 | rucaparib 0.276 | [2] -0.124 | encorafenib 0.222

ENGASE (UniProt Q8NFI3)
inactive: saracatinib 0.043 | sotrastaurin 0.038 | alvocidib 0.017 | Tubastatin A 0.03 | [1] -0.034 | defactinib -0.046 | rucaparib 0 | [2] -0.097 | encorafenib -0.019 | [3] 0.007

EEF1A2 (UniProt Q05639)
inactive: saracatinib -0.055 | sotrastaurin 0.031 | alvocidib -0.037 | Tubastatin A 0.01 | [1] -0.035 | defactinib 0.012 | rucaparib -0.056 | [2] 0.005 | encorafenib 0 | [3] 0.021

EFTUD2 (UniProt Q15029)
inactive: saracatinib 0.066 | sotrastaurin 0.019 | alvocidib 0.058 | Tubastatin A -0.041 | [1] -0.029 | defactinib 0.032 | rucaparib -0.035 | [2] -0.041 | encorafenib -0.019 | [3] 0.045

EHMT1 (UniProt Q9H9B1)
inactive: saracatinib -0.027 | sotrastaurin -0.116 | alvocidib -0.017 | Tubastatin A 0.049 | [1] -0.082 | defactinib -0.009 | [2] 0.049 | [3] 0.003

EHD4 (UniProt Q9H223)
inactive: saracatinib 0 | sotrastaurin 0.049 | alvocidib 0.011 | Tubastatin A -0.036 | [1] -0.022 | defactinib -0.058 | rucaparib -0.029 | [2] -0.072 | encorafenib -0.005 | [3] -0.006

ENOSF1 (UniProt Q7L5Y1)
inactive: saracatinib -0.014 | sotrastaurin 0.015 | alvocidib 0.052 | Tubastatin A 0.005 | [1] 0.003 | defactinib 0.001 | rucaparib 0.005 | [2] -0.031 | encorafenib -0.08 | [3] 0.045

EIF3C (UniProt Q99613)
inactive: saracatinib -0.12 | sotrastaurin -0.287 | alvocidib 0.05 | Tubastatin A 0.125 | [1] 0.08 | defactinib -0.027 | rucaparib 0.205 | [2] 0.069 | encorafenib 0.157 | [3] -0.108

EHD1 (UniProt Q9H4M9)
inactive: saracatinib 0.004 | sotrastaurin 0 | alvocidib -0.039 | Tubastatin A 0.018 | [1] -0.011 | defactinib -0.044 | rucaparib -0.045 | [2] -0.055 | encorafenib 0.01 | [3] -0.024

EIF2B4 isoform 2 (UniProt Q9UI10)
inactive: saracatinib 0.014 | sotrastaurin -0.008 | alvocidib -0.022 | Tubastatin A 0.129 | [1] 0.004 | defactinib 0.047 | rucaparib 0.046 | [2] 0.092 | encorafenib 0.116 | [3] -0.001

EIF5B (UniProt O60841)
inactive: saracatinib -0.016 | sotrastaurin -0.025 | alvocidib 0.016 | Tubastatin A 0.034 | [1] -0.018 | defactinib 0.07 | rucaparib 0.072 | [2] 0.082 | encorafenib 0.069 | [3] -0.028

EIF3L (UniProt Q9Y262)
inactive: saracatinib -0.002 | sotrastaurin -0.017 | alvocidib -0.062 | Tubastatin A -0.011 | [1] -0.05 | defactinib -0.047 | rucaparib 0.008 | [2] 0 | encorafenib -0.007 | [3] 0.008

EIF2S2 (UniProt P20042)
inactive: saracatinib -0.019 | sotrastaurin 0.012 | alvocidib 0.092 | Tubastatin A -0.027 | [1] -0.047 | defactinib 0.113 | rucaparib 0.152 | [2] 0.014 | encorafenib 0.053 | [3] 0.035

ELL (UniProt P55199)
inactive: saracatinib -0.006 | sotrastaurin -0.272 | alvocidib 0.011 | Tubastatin A 0.055 | [1] -0.124 | rucaparib 0.033 | [2] 0.001 | encorafenib 0.128

ENO1 (UniProt P06733)
inactive: saracatinib 0.021 | sotrastaurin 0.051 | alvocidib -0.019 | Tubastatin A -0.008 | [1] -0.031 | defactinib 0.003 | rucaparib -0.051 | [2] -0.013 | encorafenib -0.033 | [3] 0.029

EIF3M (UniProt Q7L2H7)
inactive: saracatinib 0.027 | sotrastaurin -0.173 | alvocidib -0.06 | Tubastatin A 0.027 | [1] 0.015 | defactinib -0.072 | rucaparib 0.096 | [2] -0.011 | encorafenib 0.075 | [3] -0.037

2 successive entries from above:
EML3 (UniProt Q32P44)
inactive: saracatinib 0.144 | sotrastaurin -0.037 | alvocidib 0.147 | Tubastatin A 0.051 | [1] -0.045 | rucaparib 0.276 | [2] -0.124 | encorafenib 0.222

ENGASE (UniProt Q8NFI3)
inactive: saracatinib 0.043 | sotrastaurin 0.038 | alvocidib 0.017 | Tubastatin A 0.03 | [1] -0.034 | defactinib -0.046 | rucaparib 0 | [2] -0.097 | encorafenib -0.019 | [3] 0.007

More entries

EHMT2 (UniProt Q96KQ7)
inactive: saracatinib 0.01 | sotrastaurin -0.03 | alvocidib -0.181 | Tubastatin A 0.06 | [1] -0.03 | defactinib -0.092 | rucaparib 0.188 | [2] -0.048 | encorafenib -0.006 | [3] 0.056

EIF4EBP1 (UniProt Q13541)
inactive: saracatinib 0.002 | sotrastaurin 0.101 | alvocidib -0.081 | Tubastatin A 0.114 | [1] -0.065 | defactinib 0.008 | rucaparib 0.014 | [2] -0.017 | encorafenib -0.057 | [3] -0.03

EIF3B isoform 2 (UniProt P55884)
inactive: saracatinib -0.055 | sotrastaurin -0.189 | alvocidib 0.059 | Tubastatin A 0.036 | [1] 0.011 | defactinib 0 | rucaparib 0.196 | [2] 0.075 | encorafenib 0.173 | [3] -0.059
